No constants are given. Whether binding was seen depends on the method and setting. In cells and extracts the contact can be indirect. Some binding calls cover weakened binding; strength is not graded here.
Biological target: DDX39B, endogenous (human (endogenous in A549 and H1299)) (UniProt Q13838)
Experiment: co-IP; co-IP from NSCLC cell lysates (A549, H1299, A549-BM) with the indicated antibodies or normal IgG overnight at 4 °C, 5 washes with TBS, Western blot; also after EGF (30 ng/ml) or TGF-β (10 ng/ml) for 72 h, and in cells overexpressing DDX39B WT, P322A or 3KR

Protein sequences, listed by entry. Tags and fused reporters are not part of them.
UniProt Q13838: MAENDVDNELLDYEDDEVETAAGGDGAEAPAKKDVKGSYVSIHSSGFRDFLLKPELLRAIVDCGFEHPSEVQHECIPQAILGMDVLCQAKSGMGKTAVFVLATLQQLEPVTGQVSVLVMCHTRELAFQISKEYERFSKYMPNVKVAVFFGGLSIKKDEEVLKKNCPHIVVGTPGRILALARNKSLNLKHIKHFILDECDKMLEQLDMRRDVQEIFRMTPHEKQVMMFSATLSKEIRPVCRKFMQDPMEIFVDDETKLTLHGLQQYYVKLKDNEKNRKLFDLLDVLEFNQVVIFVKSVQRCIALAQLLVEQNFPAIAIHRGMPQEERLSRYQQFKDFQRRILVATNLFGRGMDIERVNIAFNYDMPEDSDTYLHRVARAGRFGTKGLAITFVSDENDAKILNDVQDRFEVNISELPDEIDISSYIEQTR
UniProt Q13263: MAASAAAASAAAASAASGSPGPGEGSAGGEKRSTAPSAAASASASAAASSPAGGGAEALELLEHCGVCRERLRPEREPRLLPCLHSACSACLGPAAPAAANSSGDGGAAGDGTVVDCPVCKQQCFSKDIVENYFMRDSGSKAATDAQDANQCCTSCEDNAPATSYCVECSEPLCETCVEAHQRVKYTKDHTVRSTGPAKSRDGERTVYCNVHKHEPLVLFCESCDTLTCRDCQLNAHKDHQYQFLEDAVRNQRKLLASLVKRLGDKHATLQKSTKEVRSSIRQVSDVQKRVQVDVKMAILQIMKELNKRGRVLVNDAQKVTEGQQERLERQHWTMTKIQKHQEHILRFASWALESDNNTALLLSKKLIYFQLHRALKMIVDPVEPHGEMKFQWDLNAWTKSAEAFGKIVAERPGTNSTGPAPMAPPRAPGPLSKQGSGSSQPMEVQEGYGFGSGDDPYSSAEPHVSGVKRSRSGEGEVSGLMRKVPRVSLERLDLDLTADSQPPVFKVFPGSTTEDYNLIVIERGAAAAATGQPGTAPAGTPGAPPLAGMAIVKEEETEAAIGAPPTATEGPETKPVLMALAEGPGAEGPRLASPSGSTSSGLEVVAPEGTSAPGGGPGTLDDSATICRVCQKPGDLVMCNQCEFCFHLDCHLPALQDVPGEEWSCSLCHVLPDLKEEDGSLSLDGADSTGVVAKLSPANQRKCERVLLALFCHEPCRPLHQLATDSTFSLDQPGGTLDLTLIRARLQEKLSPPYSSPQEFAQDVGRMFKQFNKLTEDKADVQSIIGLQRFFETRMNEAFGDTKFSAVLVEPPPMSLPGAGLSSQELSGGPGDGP

TRIM28 (tripartite motif-containing 28), endogenous (from UniProt Q13263 1-835)
binding: binds
